# Measurements reported in PubChem BioAssay AID1259308 (NCATS, 2017)
# Screen: 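Knock-downs that increase output of a recombinant reporter protein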 (primary screen)
# System: human HEK293 embryonic kidney cells stably expressing firefly luciferase (HEK-CMV-Luc2-Hygro)
# Reagent: single siRNA against human genes, 0.8 pmol siRNA per well
# Time to read-out: 72 h
# Measurement: 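Luciferase light (ONE-Glo) measured on one replicate plate set and viability (CellTiter-Glo) on the other, scaled to a negative control siRNA, with robust z-scores and luciferase per cell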
# Reading the numbers: total luciferase, z-score and total luciferase, % of control: higher = more reporter protein produced
# Rule for the call: 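Active when the median/MAD z-score for overall luciferase is greater than 3; a gene was taken forward for validation with new siRNAs if at least two of its three siRNAs passed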
# Meaning of the calls: active = raised luciferase; inactive = no rise
# In all, the deposit lists about 59,000 reagents; below is a part drawn at random. Over the whole deposit, about 1,510 (2.6%) got an active call. 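Calls use total luciferase alone and ignore viability, so some active siRNAs may act by altering cell number.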 The numbers tell different reagents against one gene apart. Not all columns of the deposit are shown.
gene,reagent no.,"total luciferase, z-score","total luciferase, % of control",Outcome
TIMM9,1,0.636,94.5,inactive
TIMM9,2,-0.304,75.8,inactive
TIMM9,3,-0.485,72.2,inactive
CXCR5,1,0.97,101,inactive
CXCR5,2,3.69,155,active
CXCR5,3,-1.26,56.9,inactive
CNGA2,1,-2.88,24.6,inactive
CNGA2,2,0.111,84.1,inactive
CNGA2,3,-0.23,77.3,inactive
CARD17P,1,-0.567,70.6,inactive
CARD17P,2,-1.24,57.2,inactive
CARD17P,3,-0.788,66.2,inactive
TRPV6,1,2.14,124,inactive
TRPV6,2,0.566,93.1,inactive
TRPV6,3,1.74,117,inactive
KCNJ11,1,-1.05,60.9,inactive
KCNJ11,2,-1.66,48.9,inactive
KCNJ11,3,-0.61,69.8,inactive
KITLG,1,0.0727,83.3,inactive
KITLG,2,-0.141,79.1,inactive
KITLG,3,-0.204,77.8,inactive

Next part, starting with the last 8 of the part before.
gene,reagent no.,"total luciferase, z-score","total luciferase, % of control",Outcome
TRPV6,2,0.566,93.1,inactive
TRPV6,3,1.74,117,inactive
KCNJ11,1,-1.05,60.9,inactive
KCNJ11,2,-1.66,48.9,inactive
KCNJ11,3,-0.61,69.8,inactive
KITLG,1,0.0727,83.3,inactive
KITLG,2,-0.141,79.1,inactive
KITLG,3,-0.204,77.8,inactive
KCNB1,1,0.747,96.8,inactive
KCNB1,2,0.164,85.2,inactive
KCNB1,3,-0.706,67.9,inactive
SETDB1,1,0.514,92.1,inactive
SETDB1,2,1.6,114,inactive
SETDB1,3,1.32,108,inactive
GUCA1C,1,-0.244,77,inactive
GUCA1C,2,-0.326,75.4,inactive
GUCA1C,3,1.76,117,inactive
TSG101,1,0.219,86.2,inactive
TSG101,2,0.976,101,inactive
TSG101,3,-0.0122,81.6,inactive
AGBL4,1,-1.64,49.3,inactive
AGBL4,2,-0.845,65.1,inactive
AGBL4,3,0.86,99,inactive
ALKBH1,1,1.49,111,inactive
ALKBH1,2,-0.466,72.6,inactive
ALKBH1,3,1.35,109,inactive
NSFL1C,1,1.9,120,inactive
NSFL1C,2,-0.155,78.8,inactive
NSFL1C,3,-0.126,79.4,inactive
ADAMTS9,1,0.343,88.7,inactive
ADAMTS9,2,-0.19,78.1,inactive
ADAMTS9,3,-0.776,66.5,inactive
DCPH1,1,1.65,115,inactive
DCPH1,2,1.07,103,inactive
DCPH1,3,2.18,125,inactive
RPL13AP17,1,0.857,98.9,inactive
RPL13AP17,2,-0.243,77.1,inactive
RPL13AP17,3,2,122,inactive
ATP6AP1L,1,-0.747,67,inactive
ATP6AP1L,2,3.83,158,active
ATP6AP1L,3,0.555,92.9,inactive
DUXAP10,1,3.4,149,active
DUXAP10,2,0.207,86,inactive
DUXAP10,3,0.767,97.2,inactive
